In this assay the target is T1, Rad21-FLAG (cohesin kleisin subunit Rad21) (S. pombe) (UniProt P30776).
T1 sequence: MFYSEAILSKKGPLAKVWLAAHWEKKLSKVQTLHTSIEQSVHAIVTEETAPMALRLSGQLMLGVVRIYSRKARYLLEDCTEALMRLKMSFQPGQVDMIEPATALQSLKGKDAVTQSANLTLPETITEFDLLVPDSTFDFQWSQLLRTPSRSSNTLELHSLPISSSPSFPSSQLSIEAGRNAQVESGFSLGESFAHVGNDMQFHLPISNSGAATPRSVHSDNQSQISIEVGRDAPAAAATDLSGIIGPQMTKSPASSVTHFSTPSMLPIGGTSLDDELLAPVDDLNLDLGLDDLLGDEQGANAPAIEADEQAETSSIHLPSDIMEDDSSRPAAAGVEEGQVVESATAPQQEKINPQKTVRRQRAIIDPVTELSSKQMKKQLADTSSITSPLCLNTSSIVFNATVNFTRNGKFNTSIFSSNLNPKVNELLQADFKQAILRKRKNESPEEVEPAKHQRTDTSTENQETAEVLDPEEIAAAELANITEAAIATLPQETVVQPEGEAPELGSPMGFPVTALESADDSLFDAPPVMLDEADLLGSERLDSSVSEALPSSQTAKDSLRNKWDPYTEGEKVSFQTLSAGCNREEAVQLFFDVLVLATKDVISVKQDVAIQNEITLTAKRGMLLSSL
Put plainly: co-IP; Rad21-FLAG IP from cdc10-129-arrested cells or cycling cells, western blot with anti-Psm1 and anti-Psm1-S1022p; also in mip1-R401G, mip1-Y533A, pef1Δ, sck1Δ and sck2Δ cells and with rapamycin.

Results are given in words; binding and its absence hold for the method and conditions named. In cells and extracts the contact can be indirect. Some binding calls cover weakened binding; strength is not graded here. Sequences can lack the tags named with a protein.

B1: Psm1 (Smc1 subunit of fission yeast cohesin) (protein, UniProt O94383 1-1228)
chain: MGRLLRLEVENFKSYRGHQIIGPFEDFTSIIGPNGAGKSNLMDAISFVLGVKSSHLRSTNVKELIYRGKILQRDNTDFTDSSNPTTAYVKLMYELDNGEQREYKRAITPSGATEYKIDEEIVTFSEYCGSLQKENILVRARNFLVFQGDVETIASQSPLELSKLVEQISGSLEYKSEYDKSKDEQDKAVNLSAHSFNKKRGINAELRQYQEQKTEAERYQSQKEKRDSAQLVYLLWKLFHLEKSISSNMAEVTRLKADSIQLIERRDENTKEIEKLKEKEGSIRRNLLAFDRKVRKQEKLIASKRPELISIAEKALESKSNLRKIQRKAAEIEKDYSDQASTLQVLENQLTSLSAAEKEFLKDMQEKEQLKGLRLLPEDKEEYEGLRSEADKLNSNLLFKLQTLNRNIKVTSQSKDSLTSIVGDLESKIKSLHESVSSLDTERADLLAKINEKIESLELEKHDQQKKRLTYSELFHKTQELNEELQSCLQKILEASADRNESKQDAKKREALYALKRIYPEVKGRIIDLCTPTQKKYESAIAAALGKNFDAIVVETQAVAKECIDYIKEQRIGIMTFFPMDTIAASPVNQKFRGTHKGARLAIDVLNFESEYERVMISAVGNTLICDSMTVARDLSYNKRLNAKTVTLEGTVIHKTGLITGGSSNNRSAKHWDDHDFDLLTQTKDRLMHQIGEIEYQKSSCVITESDTVKLHSLESEISLLKDKYTVVSRSVEDKKKEIGHYESLIKEKQPHLSELEMELRNFVKSRDELQIQVEKVEEKIFSGFCKRIGISDIHTYDEIHRTFTQSFTQKQLEFTKQKSLLENRISFEKQRVSDTRLRLERMHKFIEKDQESIDNYEQNREALESEVATAEAELELLKEDFASENSKTEKILLAASEKKLVGKRLVSELTKLSGNITLLESEIDRYVSEWHAILRKCKLEDIDVPLREGSLTSIPIDDVSNSGDITMGEEPSEPVINFEKFGVEVDYDELDEELRNDGSESMASVLQEKLREYSEELDQMSPNLRAIERLETVETRLAKLDEEFAAARKAAKNAKERFNAVKQKRLQKFQAAFSHISEQIDPIYKELTKSPAFPLGGTAYLTLDDLDEPYLGGIKFHAMPPMKRFRDMDQLSGGEKTMAALALLFAIHSYQPSPFFVLDEIDAALDQTNVTKIANYIRQHASSGFQFVVISLKNQLFSKSEALVGIYRDQQENSSRTLSINLEGYVE
In the case of B1, the binding entry is on record as “binds”.

The values are drawn from PMC13225845.
